Where no end group is shown, it is not given here.
Test: general procedure: peptide synthesis; chloro trityl chloride resin
Conditions: whole synthesis

**Q.** Which crude mass does the source give for Ac-YKSKKGGWTH here?
**A.** 1.18 g

**Q.** What about the crude yield (scale of the general procedure 700 mg resin) of the same substance?
**A.** 72.6%

Reference: patent US8501689B2 (Caragen Co., Ltd., priority 2008, dated 2013)
